In the supplement of paper PMC10849652:
This is one part of the list.

Amino acid sequences for entries named in this document (tags omitted). A change or cut given only in a name is not applied to a line headed by its entry.
UniProt P52739: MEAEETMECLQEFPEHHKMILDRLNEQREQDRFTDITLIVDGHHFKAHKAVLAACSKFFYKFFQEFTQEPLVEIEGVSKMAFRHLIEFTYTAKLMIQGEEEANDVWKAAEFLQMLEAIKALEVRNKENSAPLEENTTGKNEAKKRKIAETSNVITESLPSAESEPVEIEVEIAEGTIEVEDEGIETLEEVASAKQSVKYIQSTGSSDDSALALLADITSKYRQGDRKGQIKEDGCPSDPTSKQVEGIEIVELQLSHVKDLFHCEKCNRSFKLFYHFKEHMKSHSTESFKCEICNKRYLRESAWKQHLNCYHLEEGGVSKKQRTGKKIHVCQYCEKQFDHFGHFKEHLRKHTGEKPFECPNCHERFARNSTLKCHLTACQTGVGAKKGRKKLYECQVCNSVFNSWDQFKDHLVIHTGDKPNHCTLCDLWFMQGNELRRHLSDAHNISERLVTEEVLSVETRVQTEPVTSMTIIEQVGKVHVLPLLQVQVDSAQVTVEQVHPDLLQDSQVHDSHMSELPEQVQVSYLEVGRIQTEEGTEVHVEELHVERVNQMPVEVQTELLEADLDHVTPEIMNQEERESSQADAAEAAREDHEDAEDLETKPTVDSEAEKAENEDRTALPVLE
UniProt O75191: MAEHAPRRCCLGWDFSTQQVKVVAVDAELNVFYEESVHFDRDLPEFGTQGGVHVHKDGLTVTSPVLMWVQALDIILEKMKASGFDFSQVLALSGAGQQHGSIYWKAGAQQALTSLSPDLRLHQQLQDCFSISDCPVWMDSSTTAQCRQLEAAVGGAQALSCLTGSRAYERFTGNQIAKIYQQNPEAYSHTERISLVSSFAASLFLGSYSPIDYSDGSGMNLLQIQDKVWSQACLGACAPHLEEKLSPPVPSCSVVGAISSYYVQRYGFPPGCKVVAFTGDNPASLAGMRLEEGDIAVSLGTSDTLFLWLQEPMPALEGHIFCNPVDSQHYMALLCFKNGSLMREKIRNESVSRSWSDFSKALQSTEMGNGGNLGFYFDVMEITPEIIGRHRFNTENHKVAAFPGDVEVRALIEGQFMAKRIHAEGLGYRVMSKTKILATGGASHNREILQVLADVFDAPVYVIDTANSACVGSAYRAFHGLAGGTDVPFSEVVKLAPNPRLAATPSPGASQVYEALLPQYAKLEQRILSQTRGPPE
UniProt P58557: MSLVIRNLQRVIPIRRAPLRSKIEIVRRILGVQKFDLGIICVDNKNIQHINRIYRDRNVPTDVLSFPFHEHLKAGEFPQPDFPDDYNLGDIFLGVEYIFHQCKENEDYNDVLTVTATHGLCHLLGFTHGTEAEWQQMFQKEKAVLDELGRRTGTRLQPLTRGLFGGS
UniProt Q9ULC8: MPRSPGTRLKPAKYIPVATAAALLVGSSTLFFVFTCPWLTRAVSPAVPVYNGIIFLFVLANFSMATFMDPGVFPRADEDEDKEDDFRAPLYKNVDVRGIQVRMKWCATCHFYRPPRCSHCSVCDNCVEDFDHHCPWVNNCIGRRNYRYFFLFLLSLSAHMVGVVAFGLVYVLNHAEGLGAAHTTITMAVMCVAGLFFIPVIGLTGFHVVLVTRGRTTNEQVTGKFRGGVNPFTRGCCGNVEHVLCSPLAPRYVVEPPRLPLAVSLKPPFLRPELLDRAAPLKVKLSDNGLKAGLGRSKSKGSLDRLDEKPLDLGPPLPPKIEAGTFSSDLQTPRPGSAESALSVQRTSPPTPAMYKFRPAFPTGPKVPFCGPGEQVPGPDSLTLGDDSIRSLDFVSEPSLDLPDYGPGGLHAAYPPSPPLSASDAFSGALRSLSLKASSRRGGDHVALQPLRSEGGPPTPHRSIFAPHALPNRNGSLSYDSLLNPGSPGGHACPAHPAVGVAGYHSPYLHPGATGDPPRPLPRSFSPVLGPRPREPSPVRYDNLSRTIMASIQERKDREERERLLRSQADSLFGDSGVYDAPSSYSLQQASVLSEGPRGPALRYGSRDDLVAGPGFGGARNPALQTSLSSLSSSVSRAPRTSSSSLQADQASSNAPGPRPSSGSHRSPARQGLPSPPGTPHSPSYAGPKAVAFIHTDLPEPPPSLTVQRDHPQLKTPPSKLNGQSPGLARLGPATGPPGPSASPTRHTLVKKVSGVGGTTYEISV
UniProt Q8TBF4: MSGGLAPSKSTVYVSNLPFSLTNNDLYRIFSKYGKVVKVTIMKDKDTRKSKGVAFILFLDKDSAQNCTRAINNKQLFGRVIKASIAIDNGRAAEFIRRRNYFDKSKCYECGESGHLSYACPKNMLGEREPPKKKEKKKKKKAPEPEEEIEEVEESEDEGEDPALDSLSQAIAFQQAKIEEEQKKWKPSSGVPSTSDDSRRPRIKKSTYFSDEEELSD
UniProt P47974: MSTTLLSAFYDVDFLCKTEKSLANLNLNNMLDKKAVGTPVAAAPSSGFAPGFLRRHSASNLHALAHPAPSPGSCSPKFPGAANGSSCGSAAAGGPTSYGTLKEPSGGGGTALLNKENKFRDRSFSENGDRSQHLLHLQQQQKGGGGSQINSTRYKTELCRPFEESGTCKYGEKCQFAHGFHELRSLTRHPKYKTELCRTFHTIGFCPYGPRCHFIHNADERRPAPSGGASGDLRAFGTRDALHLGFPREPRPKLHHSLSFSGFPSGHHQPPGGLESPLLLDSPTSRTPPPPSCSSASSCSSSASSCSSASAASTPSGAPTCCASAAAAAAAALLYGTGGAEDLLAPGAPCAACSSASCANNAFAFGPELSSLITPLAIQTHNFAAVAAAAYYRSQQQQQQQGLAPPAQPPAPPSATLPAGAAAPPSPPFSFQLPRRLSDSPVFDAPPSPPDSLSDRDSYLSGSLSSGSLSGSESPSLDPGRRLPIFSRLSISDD
UniProt O60293: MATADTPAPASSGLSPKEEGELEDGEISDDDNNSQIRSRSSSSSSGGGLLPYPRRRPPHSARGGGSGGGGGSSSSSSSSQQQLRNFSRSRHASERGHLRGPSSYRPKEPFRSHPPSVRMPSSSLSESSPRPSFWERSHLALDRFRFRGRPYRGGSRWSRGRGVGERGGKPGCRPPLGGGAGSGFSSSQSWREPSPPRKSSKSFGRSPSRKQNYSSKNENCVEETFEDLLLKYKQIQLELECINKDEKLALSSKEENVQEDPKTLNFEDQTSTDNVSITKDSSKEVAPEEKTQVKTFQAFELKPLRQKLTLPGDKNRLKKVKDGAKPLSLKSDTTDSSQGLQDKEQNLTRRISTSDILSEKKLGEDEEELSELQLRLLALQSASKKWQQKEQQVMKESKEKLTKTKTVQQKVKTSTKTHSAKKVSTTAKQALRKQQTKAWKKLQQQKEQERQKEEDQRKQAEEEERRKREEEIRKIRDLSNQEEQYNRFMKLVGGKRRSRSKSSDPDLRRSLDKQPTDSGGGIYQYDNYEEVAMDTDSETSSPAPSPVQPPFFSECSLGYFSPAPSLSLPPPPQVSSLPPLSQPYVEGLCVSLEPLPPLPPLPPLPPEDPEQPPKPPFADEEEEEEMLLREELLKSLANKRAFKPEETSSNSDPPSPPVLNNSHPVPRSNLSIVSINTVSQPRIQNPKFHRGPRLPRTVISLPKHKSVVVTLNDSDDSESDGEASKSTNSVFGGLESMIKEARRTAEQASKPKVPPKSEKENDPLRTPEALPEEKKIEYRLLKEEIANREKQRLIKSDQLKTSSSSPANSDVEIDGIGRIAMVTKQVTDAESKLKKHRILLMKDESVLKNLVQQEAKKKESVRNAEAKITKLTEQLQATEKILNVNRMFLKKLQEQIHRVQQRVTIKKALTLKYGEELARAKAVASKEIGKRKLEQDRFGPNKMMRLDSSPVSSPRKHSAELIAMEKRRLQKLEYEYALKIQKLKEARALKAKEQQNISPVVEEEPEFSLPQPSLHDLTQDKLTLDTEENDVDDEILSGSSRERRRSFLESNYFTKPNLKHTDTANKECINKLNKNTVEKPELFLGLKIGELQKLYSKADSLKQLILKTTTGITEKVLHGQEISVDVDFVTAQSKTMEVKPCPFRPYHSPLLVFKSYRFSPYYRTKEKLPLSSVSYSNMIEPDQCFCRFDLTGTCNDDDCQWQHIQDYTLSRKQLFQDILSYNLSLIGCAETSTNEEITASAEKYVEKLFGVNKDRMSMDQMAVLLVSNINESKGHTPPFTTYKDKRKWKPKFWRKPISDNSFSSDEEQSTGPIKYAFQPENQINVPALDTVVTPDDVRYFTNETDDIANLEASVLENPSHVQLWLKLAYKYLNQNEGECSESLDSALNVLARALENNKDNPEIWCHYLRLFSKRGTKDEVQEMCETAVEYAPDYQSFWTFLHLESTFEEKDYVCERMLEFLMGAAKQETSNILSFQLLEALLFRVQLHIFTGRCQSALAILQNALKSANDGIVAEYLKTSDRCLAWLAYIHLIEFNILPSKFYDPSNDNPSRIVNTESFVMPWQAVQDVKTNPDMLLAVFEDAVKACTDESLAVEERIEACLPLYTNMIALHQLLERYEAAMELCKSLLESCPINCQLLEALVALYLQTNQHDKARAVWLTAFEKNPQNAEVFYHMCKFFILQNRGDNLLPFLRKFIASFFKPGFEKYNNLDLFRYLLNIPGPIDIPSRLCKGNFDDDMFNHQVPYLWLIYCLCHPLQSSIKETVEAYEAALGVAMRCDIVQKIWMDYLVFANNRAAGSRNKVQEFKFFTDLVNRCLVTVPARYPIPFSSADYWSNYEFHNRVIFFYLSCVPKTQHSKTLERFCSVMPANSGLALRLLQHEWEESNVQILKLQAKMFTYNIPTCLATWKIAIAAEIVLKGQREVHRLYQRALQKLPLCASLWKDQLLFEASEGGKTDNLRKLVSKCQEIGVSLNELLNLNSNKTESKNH
UniProt Q9Y548: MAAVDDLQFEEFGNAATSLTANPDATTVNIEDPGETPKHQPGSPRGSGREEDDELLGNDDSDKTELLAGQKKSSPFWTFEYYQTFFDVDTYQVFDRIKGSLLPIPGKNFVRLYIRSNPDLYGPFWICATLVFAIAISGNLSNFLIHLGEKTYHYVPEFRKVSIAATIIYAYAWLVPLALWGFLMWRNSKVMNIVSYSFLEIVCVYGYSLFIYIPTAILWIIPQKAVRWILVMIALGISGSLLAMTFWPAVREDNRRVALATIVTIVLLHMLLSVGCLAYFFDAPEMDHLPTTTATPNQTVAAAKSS
UniProt Q9H6S0: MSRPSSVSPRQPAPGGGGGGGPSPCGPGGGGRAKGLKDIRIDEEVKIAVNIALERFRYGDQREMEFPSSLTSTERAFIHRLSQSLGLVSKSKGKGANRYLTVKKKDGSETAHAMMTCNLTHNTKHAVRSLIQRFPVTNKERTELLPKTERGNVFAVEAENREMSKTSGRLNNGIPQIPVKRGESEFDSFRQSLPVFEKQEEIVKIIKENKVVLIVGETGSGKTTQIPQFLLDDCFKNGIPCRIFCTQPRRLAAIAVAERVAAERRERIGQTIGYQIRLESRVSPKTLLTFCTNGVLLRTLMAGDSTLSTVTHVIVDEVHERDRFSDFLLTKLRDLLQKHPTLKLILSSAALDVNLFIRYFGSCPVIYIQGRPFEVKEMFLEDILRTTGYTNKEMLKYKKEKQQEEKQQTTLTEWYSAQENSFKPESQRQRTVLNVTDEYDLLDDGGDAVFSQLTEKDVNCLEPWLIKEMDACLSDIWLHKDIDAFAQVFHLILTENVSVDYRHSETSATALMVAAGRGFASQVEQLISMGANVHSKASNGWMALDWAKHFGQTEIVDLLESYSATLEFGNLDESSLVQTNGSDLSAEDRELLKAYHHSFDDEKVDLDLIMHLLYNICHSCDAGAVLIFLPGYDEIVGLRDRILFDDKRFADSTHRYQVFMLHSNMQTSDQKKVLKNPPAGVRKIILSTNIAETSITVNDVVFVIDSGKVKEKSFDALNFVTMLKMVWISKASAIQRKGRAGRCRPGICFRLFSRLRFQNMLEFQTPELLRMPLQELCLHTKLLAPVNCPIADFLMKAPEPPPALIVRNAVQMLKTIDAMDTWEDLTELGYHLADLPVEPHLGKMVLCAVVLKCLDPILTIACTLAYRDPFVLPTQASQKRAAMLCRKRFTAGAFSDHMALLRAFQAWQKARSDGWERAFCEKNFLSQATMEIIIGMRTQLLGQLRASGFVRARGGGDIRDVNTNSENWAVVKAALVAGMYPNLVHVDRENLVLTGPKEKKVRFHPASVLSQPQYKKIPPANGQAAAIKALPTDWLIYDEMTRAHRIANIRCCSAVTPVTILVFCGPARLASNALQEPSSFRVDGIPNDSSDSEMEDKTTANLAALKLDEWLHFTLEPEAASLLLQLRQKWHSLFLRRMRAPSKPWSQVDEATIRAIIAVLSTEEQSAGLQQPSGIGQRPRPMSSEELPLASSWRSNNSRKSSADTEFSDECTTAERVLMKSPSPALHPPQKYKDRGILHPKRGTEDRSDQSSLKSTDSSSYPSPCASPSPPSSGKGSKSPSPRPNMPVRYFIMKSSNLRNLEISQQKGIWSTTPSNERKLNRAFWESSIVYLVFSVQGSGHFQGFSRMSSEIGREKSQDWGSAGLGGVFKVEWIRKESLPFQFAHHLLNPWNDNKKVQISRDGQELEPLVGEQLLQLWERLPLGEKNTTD

Assays:
Assay in all cases: log2 fold change, soluble protein after heating vs DMSO (PISA); higher = thermal stabilisation; K562 cells, 10 uM, 30 min; active = over 0.2 and 3.5 SD of the protein, either way, in both replicates (recomputed)
sotrastaurin = compound: CN1CCN(c2nc(C3=C(c4c[nH]c5ccccc45)C(=O)NC3=O)c3ccccc3n2)CC1 [sotrastaurin]
In short: (§1)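 K562 cells at 2×10^6 cells/mL were treated with 10 μM compound for 30 min. Aliquots were heated for 3 min across 48°C-58°C, pooled, and extracted in PBS with 0.5% NP-40 at 4°C; soluble protein was the supernatant after 21,000xg for 90 min. Soluble protein was quantified by TMTpro 16plex LC-MS/MS with channel sums equalised, and reported as log2 fold change in thermal stability against DMSO controls, with values from duplicates.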

alvocidib = compound: CN1CC[C@H](c2c(O)cc(O)c3c(=O)cc(-c4ccccc4Cl)oc23)[C@H](O)C1 [alvocidib]
In short: as §1

[1] = compound: CNC(=O)C1=CC=CC=C1NC2=NC(=NC=C2Cl)NC3=C(C=C(C=C3)N4CCOCC4)OC
In short: as §1

rucaparib = compound: CNCc1ccc(-c2[nH]c3cc(F)cc4c3c2CCNC4=O)cc1 [rucaparib]
In short: as §1

encorafenib = compound: COC(=O)N[C@@H](C)CNc1nccc(-c2cn(C(C)C)nc2-c2cc(Cl)cc(NS(C)(=O)=O)c2F)n1 [encorafenib]
In short: as §1

Tubastatin A = compound: CN1CCc2c(c3ccccc3n2Cc2ccc(C(=O)NO)cc2)C1 [Tubastatin A]
In short: as §1

defactinib = compound: CNC(=O)c1ccc(Nc2ncc(C(F)(F)F)c(NCc3nccnc3N(C)S(C)(=O)=O)n2)cc1 [defactinib]
In short: as §1

[2] = compound: COC(=O)[C@H](CCSC)NC(=O)C1=C(C=C(C=C1)NC[C@H](CS)N)C2=CC=CC=C2
In short: as §1

saracatinib = compound: CN1CCN(CCOc2cc(OC3CCOCC3)c3c(Nc4c(Cl)ccc5c4OCO5)ncnc3c2)CC1 [saracatinib]
In short: as §1

[3] = compound: CNc1nc(-c2ccc3c(N)n[nH]c3c2)cc(N2C[C@@H](C(=O)NC3CCCCC3)CC[C@H]2C)n1
In short: as §1

Measured: log2 fold change

ZNF131 (UniProt P52739)
inactive: sotrastaurin 0.095

ZDHHC13 (UniProt Q8IUH4)
inactive: sotrastaurin -0.018 | alvocidib -0.039 | [1] 0.077 | rucaparib 0.202 | encorafenib 0.408

XPA (UniProt P23025)
inactive: Tubastatin A 0.179 | defactinib -0.111 | [2] 0.136

ZBTB14 (UniProt O43829)
inactive: alvocidib 0.143 | Tubastatin A 0.016 | [1] 0.077

ZFX isoform 3 (UniProt P17010)
inactive: Tubastatin A -0.094 | defactinib -0.488 | [2] -0.068

ZKSCAN4 (UniProt Q969J2)
inactive: alvocidib 0.171 | Tubastatin A -0.002 | defactinib 0.196 | [2] -0.332

ZDHHC16 (UniProt Q969W1)
inactive: sotrastaurin 0.029 | [1] 0.039 | defactinib 0.072 | rucaparib -0.245 | encorafenib 0.096 | [2] 0.085

ZCCHC17 (UniProt Q9NP64)
inactive: sotrastaurin -0.095 | defactinib 0.149 | [2] 0.033

ZMYM2 (UniProt Q9UBW7)
inactive: saracatinib -0.193 | [3] -0.032

XYLB (UniProt O75191)
inactive: [1] 0.067

YBEY (UniProt P58557)
inactive: [1] -0.096

ZFYVE26 (UniProt Q68DK2)
inactive: alvocidib 0.016

ZBTB3 (UniProt Q9H5J0)
inactive: alvocidib -0.14 | Tubastatin A -0.062 | [1] 0.141 | defactinib -0.12 | rucaparib -0.091 | encorafenib -0.095 | [2] 0.114

ZDHHC8 isoform 3 (UniProt Q9ULC8)
inactive: saracatinib 0.188 | Tubastatin A 0.058 | [3] 0

ZDHHC2 (UniProt Q9UIJ5)
inactive: sotrastaurin -0.015 | rucaparib -0.117 | encorafenib 0.065

ZFAND1 (UniProt Q8TCF1)
inactive: sotrastaurin -0.083 | Tubastatin A 0.065 | [1] 0.107 | defactinib 0.024 | rucaparib 0.025 | encorafenib 0.011 | [2] -0.289

XPC (UniProt Q01831)
inactive: alvocidib 0.036 | [1] -0.01 | defactinib -0.057 | rucaparib 0.054 | encorafenib -0.19 | [2] 0.003

ZMYM4 (UniProt Q5VZL5)
inactive: sotrastaurin -0.008 | alvocidib -0.15 | Tubastatin A 0.069 | [1] -0.082 | defactinib -0.054 | rucaparib -0.242 | encorafenib -0.025 | [2] 0.058

ZCRB1 (UniProt Q8TBF4)
inactive: sotrastaurin 0.221 | [1] -0.25 | rucaparib 0.154 | encorafenib -0.01

ZFP36L2 (UniProt P47974)
inactive: [1] -0.078

YWHAZ (UniProt E7ESK7)
inactive: saracatinib -0.076 | Tubastatin A 0.102 | rucaparib -0.057 | [3] -0.097 | encorafenib -0.156

6 successive records already listed, quoted:
ZCCHC17 (UniProt Q9NP64)
inactive: sotrastaurin -0.095 | defactinib 0.149 | [2] 0.033

ZMYM2 (UniProt Q9UBW7)
inactive: saracatinib -0.193 | [3] -0.032

XYLB (UniProt O75191)
inactive: [1] 0.067

YBEY (UniProt P58557)
inactive: [1] -0.096

ZFYVE26 (UniProt Q68DK2)
inactive: alvocidib 0.016

ZBTB3 (UniProt Q9H5J0)
inactive: alvocidib -0.14 | Tubastatin A -0.062 | [1] 0.141 | defactinib -0.12 | rucaparib -0.091 | encorafenib -0.095 | [2] 0.114

(next part)

ZFC3H1 (UniProt O60293)
inactive: sotrastaurin -0.042 | rucaparib -0.302 | encorafenib -0.032

ZFPM2 (UniProt Q8WW38)
inactive: alvocidib -0.131 | Tubastatin A 0.107

ZFYVE28 (UniProt Q9HCC9)
inactive: [1] 0.012

YIPF2 (UniProt Q9BWQ6)
inactive: alvocidib 0.019 | Tubastatin A -0.135

YTHDF1 (UniProt Q9BYJ9)
inactive: [1] 0.118

YIPF1 (UniProt Q9Y548)
inactive: sotrastaurin 0.106 | alvocidib 0.096 | Tubastatin A -0.019 | [1] 0 | defactinib 0.088 | rucaparib -0.033 | encorafenib 0.005 | [2] 0.21

ZFHX4 isoform 5 (UniProt Q86UP3)
inactive: sotrastaurin -0.048 | Tubastatin A 0.155 | [1] 0.077

ZBTB10 (UniProt Q96DT7)
inactive: sotrastaurin -0.098 | alvocidib -0.123 | Tubastatin A -0.094 | [1] -0.151 | rucaparib 0.071 | encorafenib -0.003

ZG16B (UniProt Q96DA0)
inactive: sotrastaurin -0.016 | defactinib 0.344 | rucaparib 0.684 | encorafenib -0.533 | [2] 0.155

ZBTB7B isoform 2 (UniProt O15156)
inactive: sotrastaurin 0.059 | Tubastatin A 0.147 | defactinib 0.185 | rucaparib -0.021 | encorafenib -0.092 | [2] -0.189

YTHDC2 (UniProt Q9H6S0)
inactive: rucaparib 0.419 | encorafenib -0.075

ZDHHC4 (UniProt Q9NPG8)
inactive: sotrastaurin 0.014 | [1] 0.015 | defactinib -0.124 | [2] -0.124

ZBTB17 isoform 2 (UniProt Q13105)
inactive: sotrastaurin 0.03 | Tubastatin A 0.049 | [1] -0.041
